Experimental data: paper PMC11548748
Where two headings read alike, the source gives them in different places. Results are given in words; binding and its absence hold for the method and conditions named. In cells and extracts the contact can be indirect. Some results given as binding are weak or reduced against the parent protein; the word gives no strength. For part of these data: Sequences can lack the tags named with a protein.

The chains behind the UniProt entries cited, without tags or fusion partners.
UniProt O08586: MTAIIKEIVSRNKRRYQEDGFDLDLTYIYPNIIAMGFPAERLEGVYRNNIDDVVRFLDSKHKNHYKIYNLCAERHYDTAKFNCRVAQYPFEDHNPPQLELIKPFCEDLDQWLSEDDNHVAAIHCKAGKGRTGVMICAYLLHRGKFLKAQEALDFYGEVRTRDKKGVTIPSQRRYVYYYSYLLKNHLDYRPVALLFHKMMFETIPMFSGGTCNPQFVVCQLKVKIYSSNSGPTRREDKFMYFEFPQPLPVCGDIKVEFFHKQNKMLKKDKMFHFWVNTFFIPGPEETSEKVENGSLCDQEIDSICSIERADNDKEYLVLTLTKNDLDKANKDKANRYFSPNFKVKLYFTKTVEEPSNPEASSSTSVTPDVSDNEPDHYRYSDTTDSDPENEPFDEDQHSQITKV
UniProt P29351: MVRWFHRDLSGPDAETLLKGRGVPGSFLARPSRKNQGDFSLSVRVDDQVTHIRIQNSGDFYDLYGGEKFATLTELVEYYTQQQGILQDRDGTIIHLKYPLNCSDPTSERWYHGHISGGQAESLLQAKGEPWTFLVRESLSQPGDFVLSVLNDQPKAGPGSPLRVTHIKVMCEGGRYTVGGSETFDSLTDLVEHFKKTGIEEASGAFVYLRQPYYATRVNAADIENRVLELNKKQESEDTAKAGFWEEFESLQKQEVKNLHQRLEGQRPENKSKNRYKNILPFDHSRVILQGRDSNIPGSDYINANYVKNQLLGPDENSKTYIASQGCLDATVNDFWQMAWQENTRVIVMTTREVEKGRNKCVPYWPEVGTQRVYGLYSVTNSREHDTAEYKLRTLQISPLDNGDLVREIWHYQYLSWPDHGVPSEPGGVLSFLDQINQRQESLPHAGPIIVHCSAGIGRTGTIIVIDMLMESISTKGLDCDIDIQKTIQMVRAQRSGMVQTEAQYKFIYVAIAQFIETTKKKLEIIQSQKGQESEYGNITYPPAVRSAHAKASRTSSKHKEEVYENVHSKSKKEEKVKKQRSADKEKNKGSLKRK

B1: Dectin-1 (also known as CLEC7A) (receptor, UniProt Q6QLQ4 1-244)
chain: MKYHSHIENLDEDGYTQLDFSTQDIHKRPRGSEKGSQAPSSPWRPIAVGLGILCFVVVVVAAVLGALGEYGHNSGRNPEEKDNFLSRNKENHKPTESSLDEKVAPSKASQTTGGFSQPCLPNWIMHGKSCYLFSFSGNSWYGSKRHCSQLGAHLLKIDNSKEFEFIESQTSSHRINAFWIGLSRNQSEGPWFWEDGSAFFPNSFQVRNTAPQESLLHNCVWIHGSEVYNQICNTSSYSICEKEL
B2: HA-Dectin-1 (receptor, UniProt Q6QLQ4 1-244)
chain: B1 chain
B3: SHIP1 (enzyme, UniProt Q9ES52 1-1191)
chain: MPAMVPGWNHGNITRSKAEELLSRAGKDGSFLVRASESIPRAYALCVLFRNCVYTYRILPNEDDKFTVQASEGVPMRFFTKLDQLIDFYKKENMGLVTHLQYPVPLEEEDAIDEAEEDTVESVMSPPELPPRNIPMSAGPSEAKDLPLATENPRAPEVTRLSLSETLFQRLQSMDTSGLPEEHLKAIQDYLSTQLLLDSDFLKTGSSNLPHLKKLMSLLCKELHGEVIRTLPSLESLQRLFDQQLSPGLRPRPQVPGEASPITMVAKLSQLTSLLSSIEDKVKSLLHEGSESTNRRSLIPPVTFEVKSESLGIPQKMHLKVDVESGKLIVKKSKDGSEDKFYSHKKILQLIKSQKFLNKLVILVETEKEKILRKEYVFADSKKREGFCQLLQQMKNKHSEQPEPDMITIFIGTWNMGNAPPPKKITSWFLSKGQGKTRDDSADYIPHDIYVIGTQEDPLGEKEWLELLRHSLQEVTSMTFKTVAIHTLWNIRIVVLAKPEHENRISHICTDNVKTGIANTLGNKGAVGVSFMFNGTSLGFVNSHLTSGSEKKLRRNQNYMNILRFLALGDKKLSPFNITHRFTHLFWLGDLNYRVELPTWEAEAIIQKIKQQQYSDLLAHDQLLLERKDQKVFLHFEEEEITFAPTYRFERLTRDKYAYTKQKATGMKYNLPSWCDRVLWKSYPLVHVVCQSYGSTSDIMTSDHSPVFATFEAGVTSQFVSKNGPGTVDSQGQIEFLACYATLKTKSQTKFYLEFHSSCLESFVKSQEGENEEGSEGELVVRFGETLPKLKPIISDPEYLLDQHILISIKSSDSDESYGEGCIALRLETTEAQHPIYTPLTHHGEMTGHFRGEIKLQTSQGKMREKLYDFVKTERDESSGMKCLKNLTSHDPMRQWEPSGRVPACGVSSLNEMINPNYIGMGPFGQPLHGKSTLSPDQQLTAWSYDQLPKDSSLGPGRGEGPPTPPSQPPLSPKKFSSSTANRGPCPRVQEARPGDLGKVEALLQEDLLLTKPEMFENPLYGSVSSFPKLVPRKEQESPKMLRKEPPPCPDPGISSPSIVLPKAQEVESVKGTSKQAPVPVLGPTPRIRSFTCSSSAEGRMTSGDKSQGKPKASASSQAPVPVKRPVKPSRSEMSQQTTPIPAPRPPLPVKSPAVLQLQHSKGRDYRDNTELPHHGKHRQEEGLLGRTAMQ

What was measured:
[1] = biological target: valosin containing protein (VCP)/p97 (mouse (endogenous in BMDMs)) (UniProt Q01853); assay: co-IP; endogenous proteins in lysates of mouse BMDMs (WT or VCP-deficient), unstimulated or stimulated with ZymD for the indicated times; lysis in 50 mM Tris-HCl pH 7.4, 150 mM NaCl, 1% Triton X-100, 1 mM EDTA; IP with 2 ug antibody and protein A/G Plus-Agarose, 4°C, 12 h; immunoblot
Flag-tagged VCP (mouse) [2] = biological target: Flag-tagged VCP (mouse) (UniProt Q01853); assay: co-IP; tagged proteins co-transfected into HEK293T cells (36 h in the legends, 48 h in the text), with or without ZymD; IP by the tag (FLAG-M2 beads, anti-HA beads, anti-MYC, anti-V5); lysis in 50 mM Tris-HCl pH 7.4, 150 mM NaCl, 1% Triton X-100, 1 mM EDTA; immunoblot
[3] = biological target: valosin containing protein (VCP)/p97 (mouse (endogenous in BMDMs)) (UniProt Q01853); assay: co-IP; endogenous proteins in lysates of mouse BMDMs (WT or VCP-deficient), unstimulated or stimulated with ZymD for the indicated times; lysis in 50 mM Tris-HCl pH 7.4, 150 mM NaCl, 1% Triton X-100, 1 mM EDTA; IP with 2 ug antibody and protein A/G Plus-Agarose, 4°C, 12 h; immunoblot; remark: listed apart in the source
Flag-tagged VCP (mouse) [4] = biological target: Flag-tagged VCP (mouse) (UniProt Q01853); assay: co-IP; tagged proteins co-transfected into HEK293T cells (36 h in the legends, 48 h in the text), with or without ZymD; IP by the tag (FLAG-M2 beads, anti-HA beads, anti-MYC, anti-V5); lysis in 50 mM Tris-HCl pH 7.4, 150 mM NaCl, 1% Triton X-100, 1 mM EDTA; immunoblot; remark: listed apart in the source

Row | Molecule | binding [1] | binding [3] | further results
1 | PTEN (from UniProt O08586 1-403) (enzyme) | binds | – | –
2 | V5-SHP-1 (from UniProt P29351 1-595) (enzyme) | – | – | binding (Flag-tagged VCP (mouse) [2]): binds
3 | tyrosine phosphatase SHP-1 (from UniProt P29351 1-595) (enzyme) | binds | – | –
4 | B1 | – | binds | –
5 | B2 | – | – | binding (Flag-tagged VCP (mouse) [4]): binds
6 | B3 | – | binds | –
